Test results from PubChem BioAssay AID504648 (National Center for Advancing Translational Sciences (NCATS), 2011).
“And” between values parts separate entries of the source, which are not always exact repeats. Equal entries are not always repeated. Hit rate of the full screen: of about 390,000 compounds, about 610 (0.16%) were called active. This list was built around the results that the source calls inconclusive (neither active nor inactive); the mix of calls is not that of the screen. The call rests on the fitted dose curve; in most records, active means well fitted inhibition curve with a large enough effect; inconclusive means small, poorly fitted or top-dose-only effect, or effect the other way, or another doubt; inactive means no such curve, though single readings can be large or run the other way. Potencies of inconclusive entries are doubtful fits and often do not repeat.

Test: Nrf2 qHTS screen for inhibitors: counterscreen for cytotoxicity
Conditions: A549 ARE-Fluc cells, CellTiter-Fluor viability, 18-24 h; series mostly up to 46 µM
In short: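 A549 ARE_Fluc cells in 5% FBS OPTI-MEM were exposed to compounds in concentration-response for 18-24 h at 37 deg C. Viability was read by CellTiter-Fluor fluorescence (Ex 405/Em 525) after 30 min, before the luciferase read.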
Potency means the concentration at half of the fitted maximal effect.

SMILES	Potency
Cc1ccc(S(=O)(=O)Nc2cccc(-c3cn4cccc(C)c4n3)c2)c(C)c1	inconclusive: 32.6 µM [falling, partial curve, poor fit]
Cn1nnnc1Sc1ncnc2scc(-c3cccc(C#N)c3)c12	inconclusive: 23.1 µM [falling, partial curve, poor fit]
CCCCC(=O)OC1=C(C(=O)c2ccccc2)N(CCC)S(=O)(=O)c2ccccc21	inconclusive: 29.1 µM [falling, single point]
COc1ccc(/C=C/C(=O)Nc2ccc(N3CCOCC3)cc2)cc1	inactive
CCCCOc1ccccc1CC1C(=O)Nc2ccc(Br)cc21 (stereo unspecified)	inconclusive: 29.1 µM [falling, single point]
C=C1CCN(C(CC(C)C)C(=O)NCc2cc(OC)c(OC)c(OC)c2)S(=O)(=O)c2ccccc21 (stereo unspecified)	inactive
O=C(Nc1ccc(C(F)(F)F)cc1)c1cc(-c2cccnc2)nc2ccc(Br)cc12	inconclusive: 25.9 µM [falling, single point]
CCOC(=O)c1c(C)n(-c2ccccc2)c2ccc(OC(=O)c3cccc(OC)c3OC)cc12	inactive
CCCC(=O)NC(c1ccccc1)c1c(O)ccc2ccccc12 (stereo unspecified)	inconclusive: 32.6 µM [falling, partial curve, poor fit]
O=C(COc1ccccc1[N+](=O)[O-])N(Cc1cccc(Br)c1)C1CCS(=O)(=O)C1 (stereo unspecified)	inconclusive: 11.6 µM [falling, partial curve, poor fit]
COc1ccc(OC)c(C2CC(=O)c3c([nH]c(C(=O)OC(C)C)c3C)C2)c1 (stereo unspecified)	inconclusive: 5.8 µM [falling, partial curve, poor fit]
CCCN(C(=O)c1cc2c(=O)[nH]c3ccc(C)cc3c2s1)c1ccc(CC)cc1	inactive
O=C(/C=C/c1ccc(OC(F)F)cc1)Nc1cccc(S(=O)(=O)N2CCOCC2)c1	inconclusive: 23.1 µM [falling, single point]
Cc1ccc(NC2=C(Cl)C(=O)OC2OC(C)C)cc1 (stereo unspecified)	inconclusive: 29.1 µM [activator, partial curve, poor fit]
C/C(=N\NC(=O)c1ccccc1OCc1ccc(F)cc1)c1ccccn1	inconclusive: 1.84 µM [falling, full curve]
CCCCNS(=O)(=O)c1ccc(NC(=O)c2c(-c3ccccc3Cl)noc2C)cc1	inconclusive: 32.6 µM [activator, partial curve, poor fit]
COC(=O)c1sc(NC(=O)COc2c(C)cccc2C)nc1C	inconclusive: 0.651 µM [activator, full curve]
CC1=C(C(=O)OCCNC(=O)c2ccccc2O)C(c2ccccc2[N+](=O)[O-])C(C(=O)OCC2CCCO2)=C(C)N1 (stereo unspecified)	inconclusive: 29.1 µM [falling, single point]
CCOC(=O)Cc1nnc2c(Nc3ccc(Cl)cc3)nc3nonc3n12	inconclusive: 16.4 µM [falling, partial curve, poor fit]
CCOc1cc(/C=C2/NC(=O)NC2=O)cc([N+](=O)[O-])c1O	inconclusive: 29.1 µM [falling, single point]
Cc1cccc(N2CCN(CCNC(=O)Nc3ccc(Cl)cc3)CC2)c1C	inconclusive: 32.6 µM [falling, partial curve, poor fit]
CCC(NC(=O)OC(C)(C)C)C(=O)Oc1ccc2c3c(c(=O)oc2c1)CCC3 (stereo unspecified)	inconclusive: 16.4 µM [falling, partial curve, poor fit]

SMILES	Potency
CC(=O)Oc1cc2cccc(OC(C)=O)c(=O)c2c(OC(C)=O)c1OC(C)=O	inconclusive: 29.1 µM [falling, single point]
CN(C)S(=O)(=O)c1cccc(NC(=O)c2ccc(N3CCCC3=O)cc2)c1	inactive
COc1ccc(-n2c(=S)[nH]c3cc(C(=O)Nc4ccc(C)c(F)c4)ccc3c2=O)c(OC)c1	inactive
CC1OC(CC(=O)O)CC2=C1C(=O)c1c(O)cccc1C2=O (stereo unspecified)	active: 14.6 µM
COc1ccc(C2SCC(=O)N2CCc2ccc(OC)c(OC)c2)cc1 (stereo unspecified)	inactive
NC(CO)C(=O)NNCc1ccc(O)c(O)c1O (stereo unspecified)	inactive
O=C(NC1CCCC1)c1sc(=S)n2c1[nH]c(=O)c1ccccc12	inconclusive: 25.9 µM [falling, single point]
CCOc1ccc2nc(NCCNC(=O)C3CC3)c(C)cc2c1	inactive
Cc1cccc(C)c1OCC(=O)Nc1ccc(S(=O)(=O)Nc2ccccn2)cc1	inconclusive: 16.4 µM [activator, partial curve, poor fit]
O=C(CN1CCc2ccccc21)NCc1ccc2c(c1)OCO2	inconclusive: 25.9 µM [activator, single point]
CN(C)CCCNc1cc(C(C)(C)C)nc2c(-c3ccc(Cl)cc3)cnn12	inconclusive: 25.9 µM [falling, single point]
O=C(/C=C/c1ccc(F)cc1)c1ccccc1Br	inconclusive: 29.1 µM [falling, single point]
Fc1ccc([C@@H]2CCNC[C@H]2COc2ccc3c(c2)OCO3)cc1	inconclusive: 29.1 µM [falling, partial curve, poor fit]
Oc1ccccc1-c1nc(/C=C/c2ccccc2Cl)nn1-c1ccccc1	inactive
COc1cc(NC(=O)c2cccc3c2C(=O)N(C2CCCCC2)C3)cc(OC)c1OC	inactive
CCC(NC(=O)c1ccccc1O)c1ccccc1 (stereo unspecified)	inactive
CC(=O)c1nc(N2C(=O)CC(Cc3cccc(C)c3)C2=O)sc1C (stereo unspecified)	inconclusive: 6.51 µM [falling, partial curve, poor fit]
Cc1ccc(NC(=O)c2ccoc2C)cc1C	inactive
CC(=O)Nc1ccc(Nc2cc(N3CCOCC3)c3nonc3c2[N+](=O)[O-])cc1	inconclusive: 18.4 µM [falling, single point]
CCOC(=O)N(C)c1ccc(C(O)(C(F)(F)F)C(F)(F)F)cc1	inconclusive: 29.1 µM [falling, single point]
O=C(/C=C/c1ccccc1[N+](=O)[O-])c1ccccc1Br	inconclusive: 23.1 µM [falling, single point]
CCCc1cc(=O)[nH]c(SCC(=O)NCc2ccc3c(c2)OCO3)n1	inconclusive: 4.61 µM [falling, partial curve, poor fit]

SMILES	Potency
CC(=O)N(Cc1c(C)nn(-c2ccccc2)c1Cl)c1ccc(Cl)cc1	inactive
Cc1ccccc1CN1CCN(C(=O)c2ccc(S(=O)(=O)NCc3ccco3)cc2)CC1	inconclusive: 29.1 µM [falling, single point]
Cc1cccc(NC(=O)CSc2nnc3[nH]c(=O)cc(-c4ccccc4)n23)c1C	inactive
CC(C)(C)c1ccc(-c2nnc3sc(-c4ccncc4)nn23)cc1	inconclusive: 5.8 µM [falling, partial curve, poor fit]
CN(C)CCCN(C(=O)c1ccc(S(=O)(=O)N2CCCCCC2)cc1)c1nc2ccc(F)cc2s1	inconclusive: 29.1 µM [falling, single point]
C=CCOC(=O)C1=C(C)NC(SCC)=C(C#N)C1c1ccc(Cl)cc1 (stereo unspecified)	inconclusive: 25.9 µM [falling, single point]
Cc1nc(CN(C)C(=O)c2cc(COc3ccc4ncccc4c3)on2)cs1	inactive
CN(C)c1ccc(/C=C/c2ccc3ccccc3n2)cc1	inconclusive: 29.1 µM [activator, single point]
Cc1cccc2sc(N3CCN(C(=O)CS(=O)(=O)c4ccc(F)cc4)CC3)nc12	inconclusive: 23.1 µM [falling, partial curve, poor fit]
CCCN(Cc1cc2cc(OC)ccc2[nH]c1=O)C(=O)c1ccco1	inactive
O=C1c2cccc3cccc(c23)C(=O)N1CC1CCN(CC(O)COc2ccc3ccccc3c2)CC1 (stereo unspecified)	inconclusive: 29.1 µM [falling, single point]
COc1ccc(CNC(=O)Cn2c(=O)nc(-c3ccccc3F)c3cc(Cl)ccc32)cc1OC	active: 16.4 µM
Cc1c(C=C(C#N)c2ccc([N+](=O)[O-])cc2)c(=O)n(-c2ccccc2)n1C	inconclusive: 13 µM [falling, partial curve]
COc1ccc(C(CC(=O)N2CCCC(C)C2)c2c(OC)cc(OC)c3ccc(=O)oc23)cc1 (stereo unspecified)	inconclusive: 18.4 µM [falling, single point] and inconclusive: 16.4 µM [falling, single point]
C=CCOc1ccc(C=NNc2ccc(S(=O)(=O)Nc3ccccc3C(=O)O)cc2[N+](=O)[O-])cc1OC	inconclusive: 23.1 µM [falling, partial curve, poor fit]
Cc1ccc(S(=O)(=O)Nc2cccc(C(=O)NCc3cccnc3)c2)cc1F	inconclusive: 7.31 µM [falling, partial curve, poor fit]
O=S1(=O)C=C(Sc2nc3ccccc3s2)c2ccccc21	active: 23.1 µM
COc1ccc(OC)c(NC(=O)CSc2nc3n[nH]c(C)c3c(=N)n2-c2cccc(Cl)c2C)c1	inconclusive: 10.3 µM [falling, partial curve, poor fit]
CCC1=Nc2cc(C(=O)NCc3ccccc3Cl)ccc2Sc2ccc(C)cc21	inactive
Cc1cc(C)c(NC(=O)Cn2c(=O)n(Cc3ccc4c(c3)OCO4)c(=O)c3ccccc32)c(C)c1	inactive
CCc1nc(SCc2ccccc2)n[nH]1	inconclusive: 23.1 µM [activator, single point]
CC(=O)NNC(=S)NC(=O)C(c1ccccc1)c1ccccc1	inconclusive: 20.6 µM [falling, partial curve, poor fit]

Taken from above.
Potency, CCCN(Cc1cc2cc(OC)ccc2[nH]c1=O)C(=O)c1ccco1 is entered as inactive
Potency, CN(C)CCCN(C(=O)c1ccc(S(=O)(=O)N2CCCCCC2)cc1)c1nc2ccc(F)cc2s1 is entered as inconclusive: 29.1 µM [falling, single point]
Potency, COc1ccc(OC)c(NC(=O)CSc2nc3n[nH]c(C)c3c(=N)n2-c2cccc(Cl)c2C)c1 is entered as inconclusive: 10.3 µM [falling, partial curve, poor fit]
Potency, CN(C)c1ccc(/C=C/c2ccc3ccccc3n2)cc1 is entered as inconclusive: 29.1 µM [activator, single point]
